Data on 62 molecules can be found in PubChem BioAssay AID445 (National Center for Advancing Translational Sciences (NCATS), 2006).

Broadly, the AC50 is the concentration at which the activity in the assay is half-maximal.

This test can be described thus: IkB Signaling. Particulars: ABC-DLBCL IkBa-CBG/CBR dual luciferase ratio (green luciferase fused to IkBa over red control in OCI-Ly3 lymphoma cells), 4 h. The procedure, abridged: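 Curves were fitted separately to fusion (green), unfused (red) and ratio luminescence, then classed by r2, magnitude and activity. Cells: OCI-Ly3, 4 h compound plus doxycycline at 37C; 10 uM MG-132 defined full response.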
The mark [1] stands for this setting: measured here: control luc red channel unless noted.

Molecules are shown by their SMILES. This is one part of the list. The main result of the screen is listed elsewhere. These columns were measured beside it and carry no call. Compounds called inactive in the main read-out are mostly missing here. The note in brackets gives the kind of curve behind each potency; many fits are weak.

In the case of `CCOc1ccc2[nH]c(=O)c(C(c3nnnn3Cc3ccco3)N3CCC(C)CC3)cc2c1` (stereo not drawn), the AC50 under setting [1] was 25.1 µM [falling, partial curve].
Consider `CC(=O)c1ccc(NC(=O)CSc2nc(=O)n(Cc3ccccn3)c3c2CCC3)cc1`, for which the AC50 under setting [1] was 39.8 µM [falling, single point].
For `COc1cccc(-c2cn3c(n2)sc2cc(C(=O)NC4CCCCC4)ccc23)c1`, the AC50 under setting [1] is 12.6 µM [falling, partial curve].
The same measure, in the same setting: in the case of `CC(C)C(c1nnnn1C1CCCC1)N1c2ccccc2CC1C` (stereo not drawn) it was 15.8 µM [falling, partial curve].
On to `COc1cc(NC(=O)C2CCN(c3cnccn3)CC2)cc(OC)c1`, for which the AC50 under setting [1] is 25.1 µM [falling, partial curve, poor fit].
Consider `S=C(S)O[C@@H]1C[C@@H]2C[C@H]1[C@@H]1CCC[C@H]21`, for which the half-maximal activity concentration (AC50) under setting [1] was 39.8 µM [rising, single point] [measured here: IkB-luc green channel].
With `Cc1c(C(=O)NCc2ccc3c(c2)OCO3)oc2ccc(S(=O)(=O)N3CCC(C)CC3)cc12`, under setting [1], the AC50 was 3.16 µM [falling, full curve, poor fit].
Still for that read-out and setting: in the case of `COc1ccc(C(CNC(=O)c2oc3cc(C)c(C)cc3c2C)N2CCCCC2)cc1` (stereo not drawn) it was 25.1 µM [falling, single point]; in that of `Cc1ccc(Nc2nc(N)nc(CSc3nc4ccccc4s3)n2)cc1`, 31.6 µM [falling, single point]; in that of `Cc1c2cnn(CC(=O)NCc3ccc(Cl)cc3)c(=O)c2c(C)n1Cc1ccc(F)cc1`, 10 µM [falling, partial curve].
As for `Cc1nc(CNS(=O)(=O)c2ccc(Oc3ccccc3)cc2)cs1`, the AC50 under setting [1] is 2.51 µM [falling, full curve].
On to `Cc1ccccc1Nc1nn2c(=O)c3ccc(C(=O)NCc4cccs4)cc3nc2s1`, for which the concentration at half-maximal activity (AC50) under setting [1] is 0.316 µM [falling, full curve, poor fit].
As for `COC(=O)c1ccc(OC)c(CSc2nnc(COc3ccccc3)o2)c1`, the AC50 under setting [1] is 39.8 µM [falling, single point].
In the case of `COc1ccc(OC)c(N(CC(=O)Nc2ccc3c(c2)OCO3)S(=O)(=O)c2ccccc2)c1`, the AC50 under setting [1] is 1.58 µM [falling, partial curve].
For `Cc1ccc(S(=O)(=O)N2CCCC(C(=O)NCCc3ccc4c(c3)OCO4)C2)cc1` (stereo not drawn), the AC50 under setting [1] is 39.8 µM [falling, single point].
For `CCc1cc(C(=O)COc2ccccc2F)c(O)cc1O`, under setting [1], the half-maximal activity concentration (AC50) is 39.8 µM [falling, single point].
Turning to `Cc1ccc(NS(=O)(=O)c2ccc3oc(=O)c4ncn(C)c4c3c2)cc1C`, under setting [1], the AC50 was 20 µM [falling, partial curve].
In the case of `COc1ccc(CCNc2ncnc3c2cnn3-c2ccc(C)c(Cl)c2)cc1`, the AC50 under setting [1] was 10 µM [falling, partial curve].
For `Cc1ccc(-c2cc(-c3ccccc3)c(C#N)c(N)n2)o1`, the concentration at half-maximal activity (AC50) runs as follows: (measured here: IkB-luc green channel) 6.31 µM [rising, single point]; (measured here: control luc red channel) 39.8 µM [falling, single point].
Take `O=C(CCC1N=C2c3ccccc3N=C(SCc3ccc(Cl)cc3)N2C1=O)NCc1cccs1` (stereo not drawn): the AC50 under setting [1] is 31.6 µM [falling, single point].
With `CN(C)c1ccc(CNC(=O)CN2C(=O)C3CCCCN3c3ccc(C(=O)N4CCCC4)cc32)cc1` (stereo not drawn), the AC50 under setting [1] was 0.00631 µM [falling, full curve, poor fit].
As to `c1ccc2c(c1)nc(NCC1CCCO1)c1nnnn12` (stereo not drawn), under setting [1], the half-maximal activity concentration (AC50) is 0.126 µM [falling, full curve].
Take `CCN1CCN(C(c2ccccc2Cl)c2c(O)cc(C)n(Cc3ccco3)c2=O)CC1` (stereo not drawn): under setting [1], the AC50 is 31.6 µM [falling, single point].
For `Cn1c(=O)c2c(ncn2Cc2ccc(Cl)cc2)n(C)c1=O`, the AC50 under setting [1] was 15.8 µM [falling, partial curve].
For the molecule `Cc1ccc(S(=O)(=O)N(C)CC(=O)Nc2nc3ccccc3s2)cc1`, the AC50 under setting [1] was 12.6 µM [falling, partial curve].
As for `Cc1cccc(N2CCN(C(=O)c3noc4c3CCCCC4)CC2)c1C`, the AC50 under setting [1] was 15.8 µM [falling, partial curve].
As to `COc1ccccc1NC(=O)c1cn(-c2ccccc2)nc1-c1ccccc1`, the AC50 under setting [1] is 1 µM [falling, full curve].
For `N#Cc1nc(/C=C/c2ccc(F)cc2)oc1NCc1ccc(F)cc1`, under setting [1], the concentration at half-maximal activity (AC50) is 39.8 µM [falling, partial curve, poor fit].
As to `COc1ccc(C(=O)CSc2nnc(-c3cc4ccccc4cc3O)n2Cc2ccco2)cc1`, the AC50 under setting [1] is 31.6 µM [falling, partial curve].
Take `O=C1CC(=O)Nc2cc(S(=O)(=O)N3CCOc4ccc(Cl)cc43)ccc2N1`: under setting [1], the AC50 was 25.1 µM [falling, single point].
In the case of `COc1cc(CN(C)CC(=O)c2[nH]c(C)c(C(C)=O)c2C)ccc1OC(F)F`, the AC50 under setting [1] is 20 µM [falling, single point].
Still for that read-out and setting: then `CCCCn1nnc(NC(=O)COc2cc(C)ccc2C(C)C)n1`, with 15.8 µM [falling, partial curve].
Same read-out and setting: then `COc1ccc2c(CNCCc3cccs3)c(C(=O)O)n(Cc3cccc(F)c3)c2c1`, with 10 µM [falling, partial curve]; and `Cc1ccc(CNC(=O)CN2CCN(Cc3ccc(F)cc3Cl)C2=O)cc1`, with 20 µM [falling, partial curve]; and `CCOc1ccccc1C(=O)NCc1nc2cccnc2n1Cc1ccc(C)cc1`, with 0.398 µM [rising, full curve, poor fit].
For `CCOc1cc(CNC(=O)c2ccc3c(c2)N(C)C(=O)C2CCCCN32)ccc1OC` (stereo not drawn), under setting [1], the AC50 is 6.31 µM [falling, full curve].
Same read-out and setting: in the case of `Cc1ccc(-n2ncc3c(NC4CCCCC4)ncnc32)cc1Cl` it was 20 µM [falling, partial curve, poor fit]; in that of `Cc1nnc(NC(=O)CCC(=O)N2CCN(CCc3ccccc3)CC2)s1`, 3.98 µM [falling, full curve]; in that of `COc1ccc(CNC(=O)CCCn2nc(C)c3c(C)n(-c4ccc(C)cc4)nc3c2=O)cc1OC`, 7.94 µM [falling, partial curve].
On to `O=C(CSc1nccn1Cc1ccco1)Nc1cc(C(F)(F)F)ccc1Cl`, for which, under setting [1], the AC50 was 39.8 µM [falling, single point].
Regarding `CCN(c1ccccc1)c1nnc(NC(=O)Nc2ccc(Br)c(C)c2)s1`, the AC50 under setting [1] was 25.1 µM [falling, single point].
Same read-out and setting: then `CCOC(=O)C1CCCN(C(=O)Cn2sc3nc(C)cc(C)c3c2=O)C1` (stereo not drawn), with 15.8 µM [falling, single point] [measured here: IkB-luc green channel]; and `O=C(c1ccc2c(Cl)c3c(nc2c1)CCCC3)N1CCN(c2cccc(C(F)(F)F)c2)CC1`, with 6.31 µM [falling, full curve]; and `Cc1cc(C)nc(-n2nc(C)c(Sc3ccc(F)cc3)c2N)n1`, with 12.6 µM [falling, partial curve, poor fit].
Regarding `O=C(CN1C(=O)COc2ccc(S(=O)(=O)N3CCCCCC3)cc21)N1CCN(c2ccccc2F)CC1`, the AC50 under setting [1] was 20 µM [falling, single point].
In the case of `COc1ccc(Nc2cc(C(=O)NC3CCCC3)c3ccccc3n2)cc1`, the AC50 under setting [1] was 3.98 µM [falling, full curve, poor fit].
For the molecule `CCOc1ccc(Nc2oc(Cc3ccccc3)nc2C#N)cc1`, the AC50 under setting [1] was 25.1 µM [falling, partial curve].
Same read-out and setting: then `CN1CCN(C(=O)Cn2ncc3c4ccccc4n(Cc4ccc(Cl)cc4)c3c2=O)CC1`, with 10 µM [falling, partial curve]; and `CS(=O)(=O)N1CCc2cc(C(=O)N3CCN(c4ccccc4F)CC3)ccc21`, with 20 µM [falling, single point]; and `O=C(CCSCc1ccc(Cl)cc1)NCc1ccc(F)cc1Cl`, with 25.1 µM [falling, single point].
Regarding `O=C(c1cc2n(n1)C(C(F)(F)F)CC(c1ccco1)N2)N1CCc2ccccc2C1` (stereo not drawn), under setting [1], the AC50 is 15.8 µM [falling, partial curve].
As for `O=C(NC1CCCCC1)c1ccc(CSc2nc3ccncc3n2Cc2ccc(F)cc2)cc1`, under setting [1], the AC50 is 15.8 µM [falling, partial curve].
For `CCc1nn2c(=O)c(S(=O)(=O)Nc3ccc(Br)cc3F)c(C)nc2s1`, under setting [1], the AC50 was 39.8 µM [falling, single point].
Turning to `c1coc(C2Nc3cccc4cccc(c34)N2)c1`, the AC50 under setting [1] was 12.6 µM [rising, partial curve] [measured here: IkB-luc green channel].
For `Cc1ccc2nc(Cl)c3cc(C(=O)NCCCN(C)Cc4ccccc4)sc3c2c1`, the AC50 under setting [1] was 31.6 µM [falling, single point].
`Cc1ccc2c(c1)c1c3n2CCN(C(=O)c2ccc(C(F)(F)F)cc2)C3CCC1` (stereo not drawn): the half-maximal activity concentration (AC50) under setting [1] is 10 µM [falling, partial curve].
Take `CC1=C(C(=O)OCc2ccc(C)cc2)C(c2cccc(F)c2F)CC(=O)N1` (stereo not drawn): under setting [1], the AC50 is 3.16 µM [falling, full curve].
With `COc1ccc(CCNC(=O)c2cc3c(=O)oc4ccc(C)cc4c3s2)cc1OC`, the AC50 under setting [1] was 3.16 µM [rising, full curve].
Regarding `COc1ccc(OCC(=O)Nc2ccc3nn(-c4ccc(OC)cc4)nc3c2)cc1`, under setting [1], the AC50 is 25.1 µM [rising, partial curve].
`CCCCCn1c(CNC(=O)c2ccccc2)nc2ccccc21`: under setting [1], the half-maximal activity concentration (AC50) is 6.31 µM [falling, single point].
Regarding `Cc1cc(C)c(S(=O)(=O)N2CCN(Cc3ccc4c(c3)OCO4)CC2)cc1C`, the AC50 under setting [1] is 25.1 µM [falling, partial curve].
`Cc1ccc(C)c(N(C)C(=O)Cc2c(C(=O)O)[nH]c3ccc(Cl)cc23)c1`: under setting [1], the AC50 is 15.8 µM [falling, partial curve].
